We go through five compounds from the supplement of paper PMC4604168 (melanoma cell lines).

The structures appear in SMILES notation. This is one part of the list. Repeats are few or missing, and single values can be far off.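 The apoptosis fraction was the count of cleaved-PARP antibody-stained nuclei relative to all DNA-stained nuclei, imaged in 1,536-well plates. Screening doses were set so most cells survived, and baseline and induced cleaved-PARP levels vary greatly across cell lines.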

The test system of this assay is SkMel28. Description: cleaved PARP positive nuclei fraction relative to DMSO control; melanoma cells; higher = more apoptosis. The conditions noted are these: library dose: low library concentration; 72 h.
As for `CC1(C)CCC(c2ccc(Cl)cc2)=C(CN2CCN(c3ccc(C(=O)NS(=O)(=O)c4ccc(N[C@H](CCN5CCOCC5)CSc5ccccc5)c(S(=O)(=O)C(F)(F)F)c4)cc3)CC2)C1` + CCN(CC)CCCCNc1ncc2cc(-c3cc(OC)cc(OC)c3)c(NC(=O)NC(C)(C)C)nc2n1 [PD173074] (first compound 0.4 µM, partner dose 0.1 µM), the “cleaved PARP positive nuclei fraction” value came to 70.8%.
Consider `C[C@]1(O)C[C@@H](c2nc(-c3ccc4ccc(-c5ccccc5)nc4c3)c3c(N)nccn32)C1` + COc1cc2ncnc(Nc3ccc(Oc4ccccc4)cc3)c2cc1OC [SrcI1] (first compound 0.4 µM, partner dose 2 µM), for which the “cleaved PARP positive nuclei fraction” value was determined as 186%.
Then `CC1(C)CCC(c2ccc(Cl)cc2)=C(CN2CCN(c3ccc(C(=O)NS(=O)(=O)c4ccc(N[C@H](CCN5CCOCC5)CSc5ccccc5)c(S(=O)(=O)C(F)(F)F)c4)cc3)CC2)C1` + CCc1ccc(CCOc2ccc(CC3SC(=O)NC3=O)cc2)nc1 [pioglitazone] (first compound 0.4 µM, partner dose 2 µM), with 95.6%; and `C[C@@H](N)c1ccc(C(=O)Nc2ccnc3[nH]ccc23)cc1` + CCN(CC)CCCCNc1ncc2cc(-c3cc(OC)cc(OC)c3)c(NC(=O)NC(C)(C)C)nc2n1 [PD173074] (first compound 0.4 µM, partner dose 0.1 µM), with 140%; and `CCN(CC)CCNC(=O)c1c(C)[nH]c(/C=C2\C(=O)Nc3ccc(F)cc32)c1C` [sunitinib] + Cc1cc(N2CCOCC2)cc2[nH]c(-c3c(NC[C@@H](O)c4cccc(Cl)c4)cc[nH]c3=O)nc12 [BMS536924] (first compound 0.4 µM, partner dose 0.2 µM), with 50.9%.
